# Data reported in PubChem BioAssay AID504467 (National Center for Advancing Translational Sciences (NCATS), 2011).
# Among all 330,000 compounds or so, about 7,700 (2.3%) were called active. Inconclusive means that the source gave no clear call. Such entries were picked first, then a sample of the others. Calls follow the shape of the dose curve; as a rule, active = well fitted inhibition curve with a large enough effect; inconclusive = small, poorly fitted or top-dose-only effect, or effect the other way; inactive = flat fitted curve, though single readings scatter. Potencies beside an inconclusive call are fits to weak or partial responses and may not hold up.
# Assay: qHTS screen for small molecules that inhibit ELG1-dependent DNA repair in human embryonic kidney (HEK293T) cells expressing luciferase-tagged ELG1; also: nearly all actives have a fitted effect of over 55% in size
# Conditions: HEK293T ELG1-luciferase reporter, luminescence, 16 h, DNA damage induced by 5-fluorouridine; activity change, negative = inhibition: at 46.1 µM (top of the series)
# Procedure, shortened: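 Luminescence from the luciferase reporter, measured 30 min after ONE-Glo reagent at room temperature, was the read-out. Beforehand, 2,000 cells per well were exposed for 16 hr at 37 °C to 5-fluorouridine together with compound or vehicle.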
# % is scaled to controls: 0 for no effect and ±100 for the full control effect; potency is read from the fitted curve at half-maximal effect.
Compound,Potency,"activity change, negative = inhibition"
CCOc1ccc(NC(=O)C/C(C)=N/NC(=O)c2cnccn2)cc1,"inconclusive: 16.4 µM [activator, partial curve, poor fit]",
Cc1cc(C)c(NC(=O)COC(=O)C2CCCCC2)c(C)c1,,inactive: -0.171%
CCN1CCN(Cc2cc(=O)oc3ccc(C)cc23)CC1,,inactive: 6.33%
COc1ccc(/C=C2/N=C(SCC(=O)Nc3cc(C)on3)N(c3ccccc3)C2=O)cc1,"inconclusive: 18.4 µM [activator, single point]",
Cc1nn(CC(=O)NC2CCS(=O)(=O)C2)c(C)c1[N+](=O)[O-] (stereo not drawn),"inconclusive: 20.6 µM [activator, partial curve, poor fit]",
CSc1cccc(NS(=O)(=O)c2ccc(F)cc2)c1,,inactive: -9.8%
Cc1cccc(-c2nnc(SCc3ccccc3)o2)c1,"inconclusive: 18.4 µM [activator, partial curve, poor fit]",
Cc1ccc(/C=N/Nc2ccnc3cc(Cl)ccc23)c(C)c1,active: 18.4 µM,
CCN(CC)C(=O)CSc1nc2ccccc2c(=O)n1CCC(=O)NCc1ccc(F)cc1,active: 11.6 µM,
Cc1ccccc1C(=O)N1CCC(C(=O)N2CCN(c3ncccn3)CC2)CC1,,inactive: -2.81%
CCOC(=O)N1CCN(S(=O)(=O)c2ccc(C(=O)N(CCCN(C)C)c3nc4ccc(Cl)cc4s3)cc2)CC1,"inconclusive: 32.6 µM [activator, partial curve, poor fit]",
CCOC(=O)Nc1nc2ccccc2s1,"inconclusive: 8.2 µM [activator, partial curve]",
COc1ccc(N2CCN(C(=O)c3cn(C)c(=O)c4c3c3ccccc3n4C)CC2)cc1,"inconclusive: 20.6 µM [inhibitor, partial curve]",
O=C(Cn1ccc(C(F)(F)F)n1)N/N=C/c1ccc2c(c1)OCO2,"inconclusive: 25.9 µM [activator, single point]",
CCOC(=O)c1c(NC(=O)CSc2nnc(CNc3ccc(C)cc3C)o2)sc(C)c1C,"inconclusive: 20.6 µM [inhibitor, partial curve, poor fit]",
CCS(=O)(=O)NCc1csc(-c2ccccc2)n1,"inconclusive: 29.1 µM [activator, single point]",
OCCN(Cc1ccccc1)c1ncnc2sccc12,,inactive: -13.3%
Cc1ccc2oc(C(=O)NC3CCS(=O)(=O)C3)cc(=O)c2c1 (stereo not drawn),,inactive: 9.9%
O=C(Nc1ccc2c(c1)OCO2)N1CCN(Cc2ccco2)CC1,"inconclusive: 3.26 µM [activator, full curve]",
O=C(CN1C(=O)NC2(CCCC2)C1=O)OCc1ccc(Cl)c(Cl)c1,"inconclusive: 18.3 µM [activator, single point]",
O=C(CCCOC(=O)c1cccnc1Cl)c1ccc(Br)cc1,"inconclusive: 4.61 µM [activator, partial curve, poor fit]",
CCCCn1c(N)c(N(CC(C)C)C(=O)c2oc3ccc(Br)cc3c2C)c(=O)[nH]c1=O,,inactive: -1.35%
Cc1cccc([C@@H](NC(=O)OC(C)(C)C)C(=O)OC(C)(C)C)c1,,inactive: 20.3%

Compound,Potency,"activity change, negative = inhibition"
O=C(O)c1ccc(NC(CSCc2ccccc2F)C(=O)O)c([N+](=O)[O-])c1 (stereo not drawn),,inactive: 1.71%
COc1ccc(C(=O)NCCn2ccc3ccccc32)cc1,"inconclusive: 3.66 µM [activator, full curve]",
CC(/C=C/c1ccccc1)=N\NC(N)=S,"inconclusive: 11.6 µM [activator, partial curve, poor fit]",
COc1ccccc1N1CCN(c2nc(C)nc3c2oc2ccccc23)CC1,"inconclusive: 29.1 µM [inhibitor, single point]",
CCOC(=O)N1CCN(CC(O)c2c[nH]c3ccc(OC)cc23)CC1 (stereo not drawn),"inconclusive: 23.1 µM [inhibitor, single point]",
O=C(NC1CC1)c1sc2cc(F)ccc2c1Cl,"inconclusive: 20.6 µM [activator, partial curve]",
O=[N+]([O-])c1ccc(-c2ccc(/C=N/c3c(-c4ccco4)nc4ccccn34)o2)c(Cl)c1,"inconclusive: 4.61 µM [activator, partial curve, poor fit]",
Cc1ccc(OCC(O)CNCc2ccc(F)cc2)cc1 (stereo not drawn),,inactive: 13.3%
CCOC(=O)N1CCC(NC(=O)CSCc2nc(-c3cccc(OC)c3)oc2C)CC1,active: 11.6 µM,
O=C(O)c1cc(N/N=C/c2ccc(OCc3ccccc3)cc2)ccc1Cl,"inconclusive: 6.51 µM [activator, partial curve]",
O=C(NCC(=O)N1CCCCCC1)c1ccc(Br)cc1,"inconclusive: 16.4 µM [activator, partial curve]",
Cn1cc(Br)c(C(=O)N2CCc3ccccc32)n1,"inconclusive: 18.4 µM [activator, single point]",
COC(=O)c1ccc(N2CCOCC2)c(NC(=O)c2cccs2)c1,"inconclusive: 32.6 µM [inhibitor, single point]",
Cc1cc(O)ccc1-c1cnc2ccccc2n1,"inconclusive: 20.6 µM [activator, partial curve]",
Oc1ccc(CCNc2c3ccccc3nc3ccccc23)cc1O,"inconclusive: 35.5 µM [inhibitor, single point]",
COC(=O)C(=Nc1ccccc1)/C(C(=O)C(=O)N(C)c1ccccc1)=C(\O)c1ccccc1,"inconclusive: 5.8 µM [activator, full curve, poor fit]",
COc1ccc(S(=O)(=O)N2c3ccccc3OCC2c2ccccc2)cc1 (stereo not drawn),"inconclusive: 23.1 µM [inhibitor, partial curve, poor fit]",
COCCNC(=S)Nc1cccc2cnccc12,"inconclusive: 4.61 µM [inhibitor, partial curve, poor fit]",
O=C1N/C(=C/c2cccs2)C(=O)N1Cc1ccc(Br)cc1,,inactive: 14.5%
O=C(Nc1cccc(-c2cn3ccccc3n2)c1)c1cccc(Cl)c1,"inconclusive: 18.4 µM [inhibitor, partial curve, poor fit]",
COc1ccc(N2CCN(C(=O)c3cc(N4C(=O)C5C6CCC(C6)C5C4=O)ccc3Cl)CC2)cc1 (stereo not drawn),"inconclusive: 29.1 µM [inhibitor, single point]",
CN(C)CCCN(C(=O)CCc1ccccc1)c1nc2ccc(Cl)cc2s1,,inactive: -3.7%
COc1ccc(CN2C(=NC(=O)c3ccccc3)SC3CS(=O)(=O)CC32)cc1OC (stereo not drawn),"inconclusive: 8.2 µM [inhibitor, partial curve]",

# A second format for some results above:
Compound | Potency | activity change, negative = inhibition
COCCNC(=S)Nc1cccc2cnccc12 | inconclusive: 4.61 µM [inhibitor, partial curve, poor fit] | 
O=C1N/C(=C/c2cccs2)C(=O)N1Cc1ccc(Br)cc1 |  | inactive: 14.5%

# (next part)

Compound,Potency,"activity change, negative = inhibition"
Cc1sc2nc(CN3CCOCC3)nc(N3CCOCC3)c2c1C,"inconclusive: 16.4 µM [inhibitor, partial curve, poor fit]",
CCOC(=O)N1CCN(c2ccc(S(=O)(=O)N(Cc3ccccc3)Cc3ccccc3)cn2)CC1,"inconclusive: 2.31 µM [inhibitor, partial curve, poor fit]",
COc1cc(NC(=S)Nc2ccccn2)cc(OC)c1OC,,inactive: -6.77%
COC(=O)c1ccc(OS(=O)(=O)c2ccc(NC(C)=O)cc2)cc1,,inactive: -10.2%
C=CCn1cc(C(=O)c2cc(Br)ccc2O)cc(C#N)c1=O,"inconclusive: 16.4 µM [inhibitor, partial curve, poor fit]",
COc1cc(OC)cc(C(=O)N[C@H](C(=O)NCc2ccc(F)cc2)C(C)C)c1,"inconclusive: 2.59 µM [inhibitor, partial curve, poor fit]",
O=C(Cc1cccs1)N/N=C/C(Br)=C/c1ccccc1,"inconclusive: 18.4 µM [activator, partial curve]",
COc1ccc(CCNCC(=O)Nc2ccc(OC(F)(F)F)cc2)cc1OC,,inactive: 7.14%
C/C(=N/Nc1ccnc2cc(Cl)ccc12)c1ccc(N)cc1,,inactive: 17.3%
O=C(c1cccc(C(F)(F)F)c1)C1CCCN(Cc2cccn2-c2ccccn2)C1 (stereo not drawn),"inconclusive: 32.6 µM [inhibitor, single point]",
CC1Cc2ccccc2N1C(=O)COC(=O)c1ccc(Cl)c(S(=O)(=O)N2CCOCC2)c1 (stereo not drawn),"inconclusive: 25.1 µM [inhibitor, single point]",
CCOc1cc(C(=O)NCc2ccncc2)cc(OCC)c1OCC,"inconclusive: 20.6 µM [inhibitor, single point]",
Clc1ccccc1/C=N/Nc1cc(N2CCOCC2)ncn1,"inconclusive: 2.59 µM [activator, full curve]",
Nc1c(C(=O)NCC2CCCO2)c2nc3ccccc3nc2n1-c1ccccc1 (stereo not drawn),"inconclusive: 7.31 µM [inhibitor, partial curve]",
COc1ccc(NC(=O)c2cc3sccc3n2Cc2ccc(F)cc2)cc1OC,"inconclusive: 29.1 µM [activator, single point]",
O=C(CSc1nc(-c2ccccc2)cs1)N1CCN(C(=O)c2ccco2)CC1,"inconclusive: 29.1 µM [inhibitor, single point]",
Cc1nc(NCc2ccc3c(c2)OCO3)c2oc3ccccc3c2n1,"inconclusive: 29.1 µM [inhibitor, single point]",
CCOCc1c(C(=O)Nc2ccccc2N2CCN(C)CC2)oc2ccccc12,"inconclusive: 20.6 µM [inhibitor, single point]",
CC1CCN(c2ccc(NC(=O)c3cccnc3)cc2)CC1,"inconclusive: 2.31 µM [activator, partial curve]",
CS(=O)CSc1nc2c(cc1C#N)CCCC2 (stereo not drawn),"inconclusive: 29.1 µM [activator, single point]",
Cc1ccc(NC(=O)c2ccc3c(c2)OCO3)cc1Cl,"inconclusive: 2.31 µM [activator, full curve]",
COc1cccc(NC(=O)C(=O)N2CCOCC2)c1,"inconclusive: 11.6 µM [activator, partial curve]",
